According to PMC6347605:
Results are given in words; binding and its absence hold for the method and conditions named. Binding seen in cells or lysates may run through a third protein. Some results given as binding are weak or reduced against the parent protein; the word gives no strength. For some assays here: Where a sequence is shown, tags or fusion partners need not be part of it.

Protein sequences, listed by entry. Tags and fused reporters are not part of them. Residues count along the entry.
UniProt O00327: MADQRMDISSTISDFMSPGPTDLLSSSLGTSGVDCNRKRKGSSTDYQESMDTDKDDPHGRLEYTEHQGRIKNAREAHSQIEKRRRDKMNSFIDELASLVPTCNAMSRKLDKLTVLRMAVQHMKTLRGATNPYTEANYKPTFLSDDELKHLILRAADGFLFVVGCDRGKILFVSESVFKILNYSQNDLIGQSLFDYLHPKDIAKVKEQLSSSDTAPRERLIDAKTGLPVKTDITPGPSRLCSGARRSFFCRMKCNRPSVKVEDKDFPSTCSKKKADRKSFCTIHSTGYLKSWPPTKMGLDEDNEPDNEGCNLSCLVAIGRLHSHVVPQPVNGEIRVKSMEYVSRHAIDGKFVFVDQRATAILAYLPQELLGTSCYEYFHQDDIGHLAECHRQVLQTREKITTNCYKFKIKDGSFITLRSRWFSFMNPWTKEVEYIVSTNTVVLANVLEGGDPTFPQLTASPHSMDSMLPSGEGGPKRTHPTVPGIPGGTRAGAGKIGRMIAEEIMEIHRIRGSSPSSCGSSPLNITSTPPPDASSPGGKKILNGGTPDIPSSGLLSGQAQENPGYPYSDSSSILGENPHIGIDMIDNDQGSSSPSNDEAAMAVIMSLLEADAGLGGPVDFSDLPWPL
UniProt Q9WTL8: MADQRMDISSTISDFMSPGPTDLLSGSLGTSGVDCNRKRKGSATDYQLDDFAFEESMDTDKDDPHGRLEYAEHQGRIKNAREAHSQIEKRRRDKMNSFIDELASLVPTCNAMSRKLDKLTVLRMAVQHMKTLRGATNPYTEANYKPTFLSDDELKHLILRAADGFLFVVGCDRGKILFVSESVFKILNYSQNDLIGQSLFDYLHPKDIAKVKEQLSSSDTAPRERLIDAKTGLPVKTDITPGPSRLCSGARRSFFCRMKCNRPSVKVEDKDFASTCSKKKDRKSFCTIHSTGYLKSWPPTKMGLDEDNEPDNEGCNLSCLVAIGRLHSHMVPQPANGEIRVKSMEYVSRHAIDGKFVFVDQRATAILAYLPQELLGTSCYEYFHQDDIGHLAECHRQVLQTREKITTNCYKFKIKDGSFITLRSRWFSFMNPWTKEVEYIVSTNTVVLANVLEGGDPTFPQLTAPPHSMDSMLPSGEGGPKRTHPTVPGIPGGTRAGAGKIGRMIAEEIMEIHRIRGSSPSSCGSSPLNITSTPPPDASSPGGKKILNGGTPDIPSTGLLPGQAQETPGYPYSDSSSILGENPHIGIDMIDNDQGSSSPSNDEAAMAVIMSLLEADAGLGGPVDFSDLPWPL
UniProt Q6PFD9, residues 1-880: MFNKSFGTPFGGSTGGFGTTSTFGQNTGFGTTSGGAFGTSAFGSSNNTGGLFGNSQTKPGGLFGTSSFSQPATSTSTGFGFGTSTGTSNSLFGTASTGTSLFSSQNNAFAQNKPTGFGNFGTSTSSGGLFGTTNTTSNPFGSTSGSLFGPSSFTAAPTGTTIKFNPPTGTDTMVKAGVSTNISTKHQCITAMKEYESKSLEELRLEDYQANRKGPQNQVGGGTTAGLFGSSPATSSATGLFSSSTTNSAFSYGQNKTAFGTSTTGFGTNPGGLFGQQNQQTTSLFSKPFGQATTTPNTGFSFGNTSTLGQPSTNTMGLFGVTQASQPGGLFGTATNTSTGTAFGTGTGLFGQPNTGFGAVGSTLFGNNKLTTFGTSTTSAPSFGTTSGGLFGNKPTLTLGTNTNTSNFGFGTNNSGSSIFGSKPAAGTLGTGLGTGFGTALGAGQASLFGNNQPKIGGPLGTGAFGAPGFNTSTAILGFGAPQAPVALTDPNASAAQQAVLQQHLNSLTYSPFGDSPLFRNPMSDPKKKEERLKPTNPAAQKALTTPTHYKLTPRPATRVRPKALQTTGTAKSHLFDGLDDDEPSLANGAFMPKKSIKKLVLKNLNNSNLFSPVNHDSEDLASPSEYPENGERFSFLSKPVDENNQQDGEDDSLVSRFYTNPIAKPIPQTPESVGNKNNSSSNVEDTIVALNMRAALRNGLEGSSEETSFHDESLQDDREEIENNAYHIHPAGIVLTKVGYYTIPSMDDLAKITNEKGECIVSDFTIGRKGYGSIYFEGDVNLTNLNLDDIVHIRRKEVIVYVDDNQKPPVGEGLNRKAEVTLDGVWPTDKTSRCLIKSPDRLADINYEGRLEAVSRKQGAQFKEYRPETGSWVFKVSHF
UniProt P52948, residues 1-880: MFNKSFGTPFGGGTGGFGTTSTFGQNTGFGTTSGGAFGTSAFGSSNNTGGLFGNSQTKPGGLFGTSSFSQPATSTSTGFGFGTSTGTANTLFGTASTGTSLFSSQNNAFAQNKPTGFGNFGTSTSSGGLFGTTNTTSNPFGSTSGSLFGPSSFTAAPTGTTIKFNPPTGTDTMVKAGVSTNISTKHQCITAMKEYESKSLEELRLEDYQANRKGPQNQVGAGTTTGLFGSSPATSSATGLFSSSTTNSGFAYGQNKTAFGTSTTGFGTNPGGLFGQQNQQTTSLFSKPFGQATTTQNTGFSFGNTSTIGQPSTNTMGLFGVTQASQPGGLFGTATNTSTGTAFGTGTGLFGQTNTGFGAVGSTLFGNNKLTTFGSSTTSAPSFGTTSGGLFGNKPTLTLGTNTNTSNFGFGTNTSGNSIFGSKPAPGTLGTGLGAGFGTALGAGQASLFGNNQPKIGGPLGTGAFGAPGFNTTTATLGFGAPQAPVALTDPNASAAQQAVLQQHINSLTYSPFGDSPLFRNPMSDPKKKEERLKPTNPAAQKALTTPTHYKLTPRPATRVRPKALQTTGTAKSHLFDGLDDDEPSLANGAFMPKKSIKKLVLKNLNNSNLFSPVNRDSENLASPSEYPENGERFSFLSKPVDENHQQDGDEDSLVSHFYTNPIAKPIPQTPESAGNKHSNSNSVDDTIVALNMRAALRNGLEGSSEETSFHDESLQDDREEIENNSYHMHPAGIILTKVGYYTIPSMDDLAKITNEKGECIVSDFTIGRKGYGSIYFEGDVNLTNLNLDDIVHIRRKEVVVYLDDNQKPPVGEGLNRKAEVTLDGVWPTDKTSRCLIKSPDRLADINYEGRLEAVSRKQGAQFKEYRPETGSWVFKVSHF

T1: CLOCK-FLAG (UniProt O15516)
T1 sequence: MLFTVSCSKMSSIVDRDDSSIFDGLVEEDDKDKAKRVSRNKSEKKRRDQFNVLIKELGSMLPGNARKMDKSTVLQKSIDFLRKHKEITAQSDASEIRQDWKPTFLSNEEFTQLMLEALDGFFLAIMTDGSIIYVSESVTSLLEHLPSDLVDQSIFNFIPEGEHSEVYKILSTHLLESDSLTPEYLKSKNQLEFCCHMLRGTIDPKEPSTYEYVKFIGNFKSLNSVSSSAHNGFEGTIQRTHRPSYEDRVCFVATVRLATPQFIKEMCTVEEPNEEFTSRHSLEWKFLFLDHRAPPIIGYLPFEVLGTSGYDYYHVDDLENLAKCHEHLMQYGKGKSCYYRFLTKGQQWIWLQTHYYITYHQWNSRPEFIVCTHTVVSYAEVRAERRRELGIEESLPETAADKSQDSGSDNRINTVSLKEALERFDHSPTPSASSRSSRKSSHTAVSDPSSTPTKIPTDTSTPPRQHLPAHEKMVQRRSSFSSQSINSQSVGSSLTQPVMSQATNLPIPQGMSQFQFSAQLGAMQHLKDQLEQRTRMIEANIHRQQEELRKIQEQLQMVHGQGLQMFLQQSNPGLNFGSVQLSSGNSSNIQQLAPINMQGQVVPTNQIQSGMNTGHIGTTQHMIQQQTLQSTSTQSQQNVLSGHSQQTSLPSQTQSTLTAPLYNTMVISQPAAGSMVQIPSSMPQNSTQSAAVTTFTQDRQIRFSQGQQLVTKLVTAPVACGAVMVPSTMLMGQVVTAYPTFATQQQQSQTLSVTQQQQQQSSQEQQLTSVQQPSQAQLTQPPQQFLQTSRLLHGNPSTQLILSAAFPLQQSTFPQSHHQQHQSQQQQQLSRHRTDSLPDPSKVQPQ

T2: RAE1-HA (UniProt P78406)
T2 sequence: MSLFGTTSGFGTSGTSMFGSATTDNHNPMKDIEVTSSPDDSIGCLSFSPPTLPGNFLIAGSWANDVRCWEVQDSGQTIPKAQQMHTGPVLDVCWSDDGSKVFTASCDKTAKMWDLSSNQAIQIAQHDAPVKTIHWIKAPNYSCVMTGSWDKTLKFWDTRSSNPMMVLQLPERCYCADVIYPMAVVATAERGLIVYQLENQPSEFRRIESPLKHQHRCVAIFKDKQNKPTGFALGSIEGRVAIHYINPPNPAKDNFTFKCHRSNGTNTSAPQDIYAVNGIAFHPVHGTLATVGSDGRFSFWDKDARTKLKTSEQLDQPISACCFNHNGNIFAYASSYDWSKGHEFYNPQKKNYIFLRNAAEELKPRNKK

T3: endogenous CLOCK (NIH3T3) (mouse (endogenous in NIH3T3)) (UniProt O08785)
T3 sequence: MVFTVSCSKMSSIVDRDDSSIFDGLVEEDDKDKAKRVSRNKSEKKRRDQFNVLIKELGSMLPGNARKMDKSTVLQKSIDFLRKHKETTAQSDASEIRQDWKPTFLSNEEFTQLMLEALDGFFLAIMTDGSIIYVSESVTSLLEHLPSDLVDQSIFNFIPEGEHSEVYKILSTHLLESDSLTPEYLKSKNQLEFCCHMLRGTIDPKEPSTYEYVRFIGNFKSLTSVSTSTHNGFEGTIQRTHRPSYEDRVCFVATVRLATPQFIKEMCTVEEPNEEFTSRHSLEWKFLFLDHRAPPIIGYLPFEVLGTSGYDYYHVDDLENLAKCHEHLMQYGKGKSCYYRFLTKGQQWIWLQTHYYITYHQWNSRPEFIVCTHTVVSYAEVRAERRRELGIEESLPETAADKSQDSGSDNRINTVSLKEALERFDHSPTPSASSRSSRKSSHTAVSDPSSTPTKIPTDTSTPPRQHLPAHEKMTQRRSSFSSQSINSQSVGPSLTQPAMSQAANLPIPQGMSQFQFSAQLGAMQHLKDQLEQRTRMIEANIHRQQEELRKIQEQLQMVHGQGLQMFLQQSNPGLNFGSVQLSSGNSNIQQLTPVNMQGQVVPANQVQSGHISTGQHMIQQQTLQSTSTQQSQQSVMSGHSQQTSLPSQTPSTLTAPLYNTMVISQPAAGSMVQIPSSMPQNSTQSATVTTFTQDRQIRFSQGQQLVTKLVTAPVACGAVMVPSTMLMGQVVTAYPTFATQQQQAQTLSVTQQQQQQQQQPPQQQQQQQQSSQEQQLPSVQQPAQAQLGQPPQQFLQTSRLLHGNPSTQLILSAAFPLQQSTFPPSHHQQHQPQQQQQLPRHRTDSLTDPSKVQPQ


What was measured:
[1] = biological target: T1, CLOCK-FLAG; assay: co-IP; two-step immunoprecipitation; cells, constructs and antibodies not told
[2] = biological target: T2, RAE1-HA; assay: as above
[3] = biological target: BMAL1-FLAG (UniProt O00327); assay: co-IP; CLOCK-FLAG or BMAL1-FLAG coexpressed with RAE1-HA or NUP98-HA in HEK 293T cells; anti-FLAG and anti-HA antibodies for immunoprecipitation and immunoblotting; protein A+G agarose beads
[4] = biological target: T1, CLOCK-FLAG; assay: as above
[5] = biological target: T3, endogenous CLOCK (NIH3T3) (mouse (endogenous in NIH3T3)); assay: co-IP; endogenous immunoprecipitation from NIH3T3 cells
[6] = biological target: T1, CLOCK-FLAG; assay: co-IP; two-step immunoprecipitation; cells, constructs and antibodies not told; remark: listed apart in the source
[7] = biological target: endogenous BMAL1 (NIH3T3) (mouse (endogenous in NIH3T3)) (UniProt Q9WTL8); assay: co-IP; endogenous immunoprecipitation from NIH3T3 cells
[8] = biological target: endogenous BMAL1 (NIH3T3) (mouse (endogenous in NIH3T3)) (UniProt Q9WTL8); assay: co-IP; nuclear lysates of NIH3T3 cells after cytosolic/nuclear fractionation, control and RAE1 or NUP98 knockdown; immunoprecipitated with anti-BMAL1 or anti-CLOCK

| binding [3] | binding [4] | binding [5] | Molecule | further results |
| --- | --- | --- | --- | --- |
| – | – | binds | endogenous NUP98 (NIH3T3) (from UniProt Q6PFD9 1-880) | – |
| – | – | binds | endogenous RAE1 (NIH3T3) (protein, UniProt Q8C570 1-368) MSLFGSTSGFGTGGTSMFGSTTTDNHNPMKDIEVTSSPDDSIGCLSFSPPTLPGNFLIAGSWANDVRCWEVQDSGQTIPKAQQMHTGPVLDVCWSDDGSKVFTASCDKTAKMWDLNSNQAIQIAQHDAPVKTIHWIKAPNYSCVMTGSWDKTLKFWDTRSSNPMMVLQLPERCYCADVIYPMAVVATAERGLIVYQLENQPSEFRRIESPLKHQHRCVAIFKDKQNKPTGFALGSIEGRVAIHYINPPNPAKDNFTFKCHRSNGTNTSAPQDIYAVNGIAFHPVHGTLATVGSDGRFSFWDKDARTKLKTSEQLDQPIAACCFNHNGNIFAYASSYDWSKGHEFYNPQKKNYIFLRNAAEELKPRNKK | binding [7]: binds |

Further lines, the molecule ahead of its results:

| Molecule | binding [3] | binding [4] | binding [5] | further results |
| --- | --- | --- | --- | --- |
| NUP98-HA (from UniProt P52948 1-880) | no binding | binds | – | binding [1]: binds; binding [2]: binds |
| RAE1-HA (protein, UniProt P78406 1-368) MSLFGTTSGFGTSGTSMFGSATTDNHNPMKDIEVTSSPDDSIGCLSFSPPTLPGNFLIAGSWANDVRCWEVQDSGQTIPKAQQMHTGPVLDVCWSDDGSKVFTASCDKTAKMWDLSSNQAIQIAQHDAPVKTIHWIKAPNYSCVMTGSWDKTLKFWDTRSSNPMMVLQLPERCYCADVIYPMAVVATAERGLIVYQLENQPSEFRRIESPLKHQHRCVAIFKDKQNKPTGFALGSIEGRVAIHYINPPNPAKDNFTFKCHRSNGTNTSAPQDIYAVNGIAFHPVHGTLATVGSDGRFSFWDKDARTKLKTSEQLDQPISACCFNHNGNIFAYASSYDWSKGHEFYNPQKKNYIFLRNAAEELKPRNKK | binds | binds | – | binding [6]: binds |
| endogenous CLOCK (NIH3T3) (protein, UniProt O08785 1-855) MVFTVSCSKMSSIVDRDDSSIFDGLVEEDDKDKAKRVSRNKSEKKRRDQFNVLIKELGSMLPGNARKMDKSTVLQKSIDFLRKHKETTAQSDASEIRQDWKPTFLSNEEFTQLMLEALDGFFLAIMTDGSIIYVSESVTSLLEHLPSDLVDQSIFNFIPEGEHSEVYKILSTHLLESDSLTPEYLKSKNQLEFCCHMLRGTIDPKEPSTYEYVRFIGNFKSLTSVSTSTHNGFEGTIQRTHRPSYEDRVCFVATVRLATPQFIKEMCTVEEPNEEFTSRHSLEWKFLFLDHRAPPIIGYLPFEVLGTSGYDYYHVDDLENLAKCHEHLMQYGKGKSCYYRFLTKGQQWIWLQTHYYITYHQWNSRPEFIVCTHTVVSYAEVRAERRRELGIEESLPETAADKSQDSGSDNRINTVSLKEALERFDHSPTPSASSRSSRKSSHTAVSDPSSTPTKIPTDTSTPPRQHLPAHEKMTQRRSSFSSQSINSQSVGPSLTQPAMSQAANLPIPQGMSQFQFSAQLGAMQHLKDQLEQRTRMIEANIHRQQEELRKIQEQLQMVHGQGLQMFLQQSNPGLNFGSVQLSSGNSNIQQLTPVNMQGQVVPANQVQSGHISTGQHMIQQQTLQSTSTQQSQQSVMSGHSQQTSLPSQTPSTLTAPLYNTMVISQPAAGSMVQIPSSMPQNSTQSATVTTFTQDRQIRFSQGQQLVTKLVTAPVACGAVMVPSTMLMGQVVTAYPTFATQQQQAQTLSVTQQQQQQQQQPPQQQQQQQQSSQEQQLPSVQQPAQAQLGQPPQQFLQTSRLLHGNPSTQLILSAAFPLQQSTFPPSHHQQHQPQQQQQLPRHRTDSLTDPSKVQPQ | – | – | – | binding [8]: binds |
